From patent US20240226230A1 come the findings set out here.

Sequences of proteins named here, by UniProt entry; tags and fusion partners are left off. A change or cut given only in a name is not applied to a line headed by its entry. A line that says so, or that is headed by a name, gives the form on record, which may keep a tag or linker.
Nup62-mCherry (P37198, form named): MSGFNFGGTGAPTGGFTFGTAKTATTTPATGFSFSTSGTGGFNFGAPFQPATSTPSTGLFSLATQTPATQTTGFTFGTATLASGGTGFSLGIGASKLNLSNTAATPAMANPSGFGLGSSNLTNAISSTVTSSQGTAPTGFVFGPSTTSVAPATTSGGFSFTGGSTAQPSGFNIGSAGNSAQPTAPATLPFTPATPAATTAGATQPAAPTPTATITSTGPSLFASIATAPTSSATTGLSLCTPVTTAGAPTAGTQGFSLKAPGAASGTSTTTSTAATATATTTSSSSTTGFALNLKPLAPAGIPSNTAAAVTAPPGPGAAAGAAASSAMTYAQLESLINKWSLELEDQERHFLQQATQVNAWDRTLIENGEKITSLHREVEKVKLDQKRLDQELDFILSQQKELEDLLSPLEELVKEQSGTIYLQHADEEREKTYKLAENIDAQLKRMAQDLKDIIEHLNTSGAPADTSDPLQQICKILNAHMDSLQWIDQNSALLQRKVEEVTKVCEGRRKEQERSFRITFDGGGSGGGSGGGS
UniProt Q13148: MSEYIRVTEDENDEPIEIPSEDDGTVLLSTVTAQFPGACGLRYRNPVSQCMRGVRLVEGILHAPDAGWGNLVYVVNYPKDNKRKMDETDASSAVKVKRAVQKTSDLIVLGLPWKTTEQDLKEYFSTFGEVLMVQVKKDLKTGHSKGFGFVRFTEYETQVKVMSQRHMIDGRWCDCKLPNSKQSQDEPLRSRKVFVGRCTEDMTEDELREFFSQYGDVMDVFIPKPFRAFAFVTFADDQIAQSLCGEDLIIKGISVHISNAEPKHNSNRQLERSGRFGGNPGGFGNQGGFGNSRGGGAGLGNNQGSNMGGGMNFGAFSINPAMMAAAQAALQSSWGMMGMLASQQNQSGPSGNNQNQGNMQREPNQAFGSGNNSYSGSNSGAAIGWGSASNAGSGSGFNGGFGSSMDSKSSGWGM

These are yes or no findings as the source states them, for the method shown. Some binding calls cover weakened binding; strength is not graded here. For part of these data: Tags and fused reporters may be left off the sequences shown.

Assay [1] concerns the target Nup62-mCherry (UniProt P37198). The experiment in a line: co-localisation by immunofluorescence in HEK293T cells (FIG. 22G; not a direct binding assay).
The target of assay [2] is Nup62-mCherry (UniProt P37198). The experiment in a line: co-localisation by immunofluorescence in HEK293T cells (not a direct binding assay).
For assay [3], the target named is GFP-TDP-CTF (human) (UniProt Q13148). The description is as above.
The target is the same in assay [4]. The experiment in a line: co-localisation by immunofluorescence in HEK293T cells (FIG. 22E; not a direct binding assay).

B1: GFP-XPO7 (receptor, not shown: large carriers)
chain: GGGSGGGSGGGSMADHVQSLAQLENLCKQLYETTDTTTRLQAEKALVEFTNSPDCLSKCQLLLERGSSSYSQLLAATCLTKLVSRTNNPLPLEQRIDIRNYVLNYLATRPKLATFVTQALIQLYARITKLGWFDCQKDDYVFRNAITDVTRFLQDSVEYCIIGVTILSQLTNEINQADTTHPLTKHRKIASSFRDSSLFDIFTLSCNLLKQASGKNLNLNDESQHGLLMQLLKLTHNCLNFDFIGTSTDESSDDLCTVQIPTSWRSAFLDSSTLQLFFDLYHSIPPSFSPLVLSCLVQIASVRRSLFNNAERAKFLSHLVDGVKRILENPQSLSDPNNYHEFCRLLARLKSNYQLGELVKVENYPEVIRLIANFTVTSLQHWEFAPNSVHYLLSLWQRLAASVPYVKATEPHMLETYTPEVTKAYITSRLESVHIILRDGLEDPLEDTGLVQQQLDQLSTIGRCEYEKTCALLVQLFDQSAQSYQELLQSASASPMDIAVQEGRLTWLVYIIGAVIGGRVSFASTDEQDAMDGELVCRVLQLMNLTDSRLAQAGNEKLELAMLSFFEQFRKIYIGDQVQKSSKLYRRLSEVLGLNDETMVLSVFIGKIITNLKYWGRCEPITSKTLQLLNDLSIGYSSVRKLVKLSAVQFMLNNHTSEHFSFLGINNQSNLTDMRCRTTFYTALGRLLMVDLGEDEDQYEQFMLPLTAAFEAVAQMFSTNSFNEQEAKRTLVGLVRDLRGIAFAFNAKTSFMMLFEWIYPSYMPILQRAIELWYHDPACTTPVLKLMAELVHNRSQRLQFDVSSPNGILLFRETSKMITMYGNRILTLGEVPKDQVYALKLKGISICFSMLKAALSGSYVNFGVFRLYGDDALDNALQTFIKLLLSIPHSDLLDYPKLSQSYYSLLEVLTQDHMNFIASLEPHVIMYILSSISEGLTALDTMVCTGCCSCLDHIVTYLFKQLSRSTKKRTTPLNQESDRFLHIMQQHPEMIQQMLSTVLNIIIFEDCRNQWSMSRPLLGLILLNEKYFSDLRNSIVNSQPPEKQQAMHLCFENLMEGIERNLLTKNRDRFTQNLSAFRREVNDSMKNSTYGVNSNDMMS
For B1, the binding entry with Nup62-mCherry [1] and in the assay with Nup62-mCherry [2] was “binds” throughout.

B2: mCherry-Nup85 (protein, UniProt Q9BW27 1-656, looked up, not shown: large carriers)
chain: MEELDGEPTVTLIPGVNSKKNQMYFDWGPGEMLVCETSFNKKEKSEMVPSCPFIYIIRKDVDVYSQILRKLFNESHGIFLGLQRIDEELTGKSRKSQLVRVSKNYRSVIRACMEEMHQVAIAAKDPANGRQFSSQVSILSAMELIWNLCEILFIEVAPAGPLLLHLLDWVRLHVCEVDSLSADVLGSENPSKHDSFWNLVTILVLQGRLDEARQMLSKEADASPASAGICRIMGDLMRTMPILSPGNTQTLTELELKWQHWHEECERYLQDSTFATSPHLESLLKIMLGDEAALLEQKELLSNWYHFLVTRLLYSNPTVKPIDLHYYAQSSLDLFLGGESSPEPLDNILLAAFEFDIHQVIKECSIALSNWWFVAHLTDLLDHCKLLQSHNLYFGSNMREFLLLEYASGLFAHPSLWQLGVDYFDYCPELGRVSLELHIERIPLNTEQKALKVLRICEQRQMTEQVRSICKILAMKAVRNNRLGSALSWSIRAKDAAFATLVSDRFLRDYCERGCFSDLDLIDNLGPAMMLSDRLTFLGKYREFHRMYGEKRFADAASLLLSLMTSRIAPRSFWMTLLTDALPLLEQKQVIFSAEQTYELMRCLEDLTSRRPVHGESDTEQLQDDDIETTKVEMLRLSLARNLARAIIREGSLEGS
Take B2: the binding result with GFP-TDP-CTF (human) [3] and with GFP-TDP-CTF (human) [4] was “binds” each time.

B3: GFP-RANBP17 (receptor, not shown: large carriers)
chain: GGGSGGGSGGGSMALHFQSLAELEVLCTHLYIGTDLTQRIEAEKALLELIDSPECLSKCQLLLEQGTTSYAQLLAATCLSKLVSRVSPLPVEQRMDIRNYILNYVASQPKLAPFVIQALIQVIAKITKLGWFEVQKDQFVFREIIADVKKFLQGTVEHCIIGVIILSELTQEMNLVDYSRPSAKHRKIATSFRDTSLKDVLVLACSLLKEVFAKPLNLQDQCQQNLVMQVLKLVLNCLNFDFIGSSADESADDLCTVQIPTTWRTIFLEPETLDLFFNLYHSLPPLLSQLALSCLVQFASTRRSLFNSPERAKYLGNLIKGVKRILENPQGLSDPGNYHEFCRFLARLKTNYQLGELVMVKEYPEVIRLIANFTITSLQHWEFAPNSVHYLLTLWQRMVASVPFVKSTEPHLLDTYAPEITKAFITSRLDSVAIVVRDHLDDPLDDTATVFQQLEQLCTVSRCEYEKTCALLVQLFDQNAQNYQKLLHPYSGVTVDITIQEGRLAWLVYLVGTVVGGRLTYTSTDEHDAMDGELSCRVFQLISLMDTGLPRCCNEKIELAILWFLDQFRKTYVGDQLQRTSKVYARMSEVLGITDDNHVLETFMTKIVTNLKYWGRYEPVISRTLQFLNDLSVGYILLKKLVKIDAVKFMLKNHTSEHFPFLGISDNHSLSDFRCRTTFYTALTRLLMVDLGEDEDEFENFMLPLTVAFETVLQIFNNNFKQEDVKRMLIGLARDLRGIAFALNTKTSYTMLFDWMYPTYLPLLQNAVERWYGEPTCTTPILKLMAELMQNRSQRLNFDVSSPNGILLFREASKMVCTYGNQILSLGSLSKDQIYPMKLKGISICYSALKSALCGNYVSFGVFKLYGDNHFDNVLQAFVKMLLSVSHSDLLQYRKLSQSYYPLLECLTQDHMSFIINLEPPVLMYVLTSISEGLTTLDTVVSSSCCTSLDYIVTYLFKHIAKEGKKPLRCREATQAGQRLLHFMQQNPDVLQQMMSVLMNTIVFEDCRNQWSVSRPLLGLILLNEKYFSELRASLINSQPLPKQEVLAQCFRNLMEGVEQNLSVKNRDRFTQNLSVFRRDVAEALRSDGNTEPCSLDMMS
B3: the binding entry in the assay with Nup62-mCherry [1] and with Nup62-mCherry [2] was “binds” each time.
